Results: doi:10.1101/2024.07.17.603870

How the values were obtained:
Experiment in all cases: two-hybrid
[1] = molecular target: T1, ABSCISIC ACID … FIVE BINDING PROTEIN 1 (AFP1), BD fusion (Arabidopsis) (UniProt Q9LQ98)
T1 sequence: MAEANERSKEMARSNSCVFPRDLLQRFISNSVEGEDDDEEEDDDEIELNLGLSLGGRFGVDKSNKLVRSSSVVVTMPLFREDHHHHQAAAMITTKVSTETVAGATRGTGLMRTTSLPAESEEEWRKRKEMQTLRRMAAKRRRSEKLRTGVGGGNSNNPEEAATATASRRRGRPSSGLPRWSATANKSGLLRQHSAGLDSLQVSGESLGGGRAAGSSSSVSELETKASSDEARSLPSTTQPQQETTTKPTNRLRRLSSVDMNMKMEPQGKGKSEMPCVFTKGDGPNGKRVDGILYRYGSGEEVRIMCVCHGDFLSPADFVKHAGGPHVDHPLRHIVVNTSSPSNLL

[2] = molecular target: T2, ABSCISIC ACID … FIVE BINDING PROTEIN 2 (AFP2), BD fusion (Arabidopsis) (UniProt Q9LMX5)
T2 sequence: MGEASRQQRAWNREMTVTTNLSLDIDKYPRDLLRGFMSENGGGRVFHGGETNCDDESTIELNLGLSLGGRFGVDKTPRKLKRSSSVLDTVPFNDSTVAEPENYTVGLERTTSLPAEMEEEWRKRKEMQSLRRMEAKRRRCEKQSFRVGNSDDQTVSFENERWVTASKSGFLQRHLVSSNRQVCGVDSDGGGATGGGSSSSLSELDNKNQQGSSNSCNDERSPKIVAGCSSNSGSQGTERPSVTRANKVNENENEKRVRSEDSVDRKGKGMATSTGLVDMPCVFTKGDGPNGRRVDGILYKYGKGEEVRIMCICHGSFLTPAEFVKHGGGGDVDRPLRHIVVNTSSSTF

[3] = molecular target: T3, ABSCISIC ACID … FIVE BINDING PROTEIN 3 (AFP3), BD fusion (Arabidopsis) (UniProt Q94F39)
T3 sequence: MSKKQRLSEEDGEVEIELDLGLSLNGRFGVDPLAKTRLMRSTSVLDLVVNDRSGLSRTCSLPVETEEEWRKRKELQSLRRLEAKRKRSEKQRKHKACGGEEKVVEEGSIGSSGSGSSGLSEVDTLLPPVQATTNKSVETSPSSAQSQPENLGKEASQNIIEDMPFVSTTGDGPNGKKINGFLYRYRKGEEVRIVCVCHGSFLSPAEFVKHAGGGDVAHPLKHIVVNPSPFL

[4] = molecular target: T4, ABSCISIC ACID … FIVE BINDING PROTEIN 4 (AFP4), BD fusion (Arabidopsis) (UniProt Q9S7Z2)
T4 sequence: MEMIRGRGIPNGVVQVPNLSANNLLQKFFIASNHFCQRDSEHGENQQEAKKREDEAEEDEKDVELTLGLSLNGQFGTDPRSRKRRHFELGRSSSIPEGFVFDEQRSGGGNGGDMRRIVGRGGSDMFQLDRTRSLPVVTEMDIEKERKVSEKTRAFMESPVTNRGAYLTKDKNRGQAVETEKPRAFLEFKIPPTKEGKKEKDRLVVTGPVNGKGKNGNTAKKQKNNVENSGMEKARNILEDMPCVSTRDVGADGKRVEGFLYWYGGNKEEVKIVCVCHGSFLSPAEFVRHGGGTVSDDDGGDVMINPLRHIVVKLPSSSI

Row | binding [1] | binding [2] | binding [3] | binding [4] | Substance
1 | no binding | no binding | no binding | no binding | HAB1, two-hybrid fusion (Arabidopsis) (enzyme)
2 | no binding | no binding | no binding | no binding | HAI3, two-hybrid fusion (Arabidopsis) (enzyme)

These are yes or no findings as the source states them, for the method shown. Where a sequence is shown, tags or fusion partners need not be part of it.
